Some of the results follow. Shown are side measurements of this screen, not its main read-out; they come without a call. Compounds called inactive in the main read-out are mostly missing here. Words in brackets tell the shape of the fitted curve; partial curves, single points and poor fits give uncertain potencies.
Assay: qHTS Assay for Lipid Storage Modulators in Drosophila S3 Cells;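 for cell number change: cells counted by Cell Tracker Red CMTPX staining in the red channel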
Details: BODIPY lipid droplet fluorescence, 18-24 h; for cell number change: measured here: cell count max response, cells fed with added oleic acid
Method in brief: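 Drosophila S3 cells loaded with oleic acid (400 uM, as added) and compounds at several concentrations; lipid droplets imaged by 488-nm laser-scanning cytometry, 500–530 nm intensity and object ratio to cell channel. Percent activity normalized to 20 uM Triacsin C.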

[1] = measured here: lipid fluorescence (Fed channel) AC50, cells fed with added oleic acid
[2] = measured here: cell number channel AC50, cells fed with added oleic acid

SMILES	cell number change [%]	AC50 [1]	AC50 [2]
Cc1csc2nc(SCC(=O)Nc3ccccc3F)[nH]c(=O)c12	14.1		
COc1ccc(/C=C(/NC(=O)c2ccccc2)c2nc3ccccc3[nH]2)cc1OC		29.1 µM [rising, partial curve, poor fit]	
Cc1ccc2nc3c(cc2c1)c(NC(=O)C1CCCO1)nn3CC(C)C (configuration not stated)		1.46 µM [rising, full curve]	
CC(C)=CC(=O)Nc1ccc2c(c1)OCO2	37.6	0.116 µM [rising, full curve, poor fit]	0.092 µM [rising, full curve, poor fit]
Cc1cc(C)c(C)c(S(=O)(=O)N2CCN(c3ccccn3)CC2)c1C	18.8	29.1 µM [rising, single point]	
O=C(/C=C/c1cccs1)N1CCN(c2ccccc2)CC1	9.55	0.411 µM [falling, single point]	
COc1ccc(CCNC(=S)NCc2ccc(Cl)c(Cl)c2)cc1OC	4.31		
O=C(O)CSCC(=O)c1ccccc1	2.04	5.17 µM [rising, partial curve]	
CCN1C(=O)/C(=C/C=C2/SCCN2C)SC1=S		6.51 µM [rising, single point]	
CN(C)Cc1c(O)ccc2c(-c3ccccc3)cc(=O)oc12	2.11	1.84 µM [rising, partial curve]	
CCOC(=O)C1CCCN(c2c(NCCCN(CC)c3cccc(C)c3)c(=O)c2=O)C1 (configuration not stated)	-1.65	0.146 µM [falling, full curve, poor fit]	
Nc1ccc(C(=O)OCC(=O)N2CCN(C(=O)c3ccco3)CC2)cc1[N+](=O)[O-]	-13.6	0.184 µM [falling, partial curve, poor fit]	
COCCOC(=O)c1c(NC(=O)CNCc2ccco2)sc(C(N)=O)c1C	17.1		
O=c1[nH]c(C2CCN(S(=O)(=O)c3ccc(C(F)(F)F)cc3)CC2)nc2c1nnn2Cc1ccccc1		25.9 µM [falling, single point]	
CC1CC(C)CN(C(=O)CSc2ncnc3sccc23)C1 (configuration not stated)	6.51	7.31 µM [falling, partial curve, poor fit]	0.082 µM [falling, full curve, poor fit]
CCOc1ccc(C(CC(=O)O)NC(=O)c2ccco2)cc1OC (configuration not stated)	-18.5	32.6 µM [falling, partial curve]	
N#CCCN(C(=O)COC(=O)c1cccc(S(=O)(=O)N2CCCC2)c1)c1ccc(F)cc1	-6.35	0.58 µM [rising, single point]	
CCCCS(=O)(=O)c1sc2nc(C)cc(C)c2c1N	-10.5		
O=C(Cc1ccccc1)NCCCc1ccccc1	-4.82		
Cc1cc(N2CCN(c3nc4ccccc4s3)CC2)n2ncnc2n1	23.3		
C=CCOc1ccc(C2/C(=C(\O)c3ccc(F)cc3)C(=O)C(=O)N2CCCN(C)C)cc1 (configuration not stated)	3.16		

SMILES	cell number change [%]	AC50 [1]	AC50 [2]
O=C(Nc1ccccc1)C(=O)Nc1ccc2c(c1)N(C(=O)C1CC1)CCC2	10.4	18.4 µM [rising, single point]	
COc1ccccc1N1CCN(CC(O)COc2ccc(S(=O)(=O)N3CCOCC3)cc2)CC1 (configuration not stated)	2.06		
COCCCN1C(=O)C(O)=C(C(=O)c2ccco2)C1c1cccc(Br)c1 (configuration not stated)	14.5	29.1 µM [rising, single point]	
CCCn1c(=N)n(CC(=O)c2cccs2)c2ccccc21	16.8	29.1 µM [rising, single point]	
O=C(c1ccc(S(=O)(=O)N2CCCCC2)cc1)N1CCN=C1SCc1cccnc1		0.92 µM [rising, full curve, poor fit]	
Cc1cccc(CC(=O)NCC2CCCCC2)c1	-11.6	2.31 µM [rising, partial curve]	
Cc1cc(C(=O)N/N=C/c2c(C)[nH]c3ccccc23)n[nH]1	5.98		0.116 µM [falling, full curve, poor fit]
CCOc1ccc(NC(=O)CS(=O)CC(=O)NC2CCCc3ccccc32)cc1 (configuration not stated)	-20.4		
Cc1ccc(C(=O)NCC(=O)OCC(=O)N(CC(C)C)c2c(N)n(Cc3ccccc3)c(=O)[nH]c2=O)cc1C	9		
O=C(c1cnn(-c2cccc(F)c2)c1)c1ccccc1O	19.1	14.6 µM [rising, partial curve, poor fit]	
S=c1nc(C2CCCCC2)[nH][nH]1	-61.3		16.4 µM [falling, partial curve, poor fit]
CN(C)S(=O)(=O)c1ccc(-c2csnn2)s1	44.5		14.6 µM [rising, partial curve, poor fit]
Cc1c(C(=O)C(=O)NCCC2=CCCCC2)c2ccccc2n1C	10.6		
Cc1ccc(S(=O)(=O)c2nc(S(=O)(=O)c3ccc(C)cc3)c(N3CCN(CCO)CC3)s2)cc1	-45	29.1 µM [falling, partial curve, poor fit]	0.0517 µM [falling, full curve, poor fit]
COc1ccc(CNC(=O)CCCN2C(=O)NC3(CCCC3)C2=O)cc1	-30.4	6.51 µM [falling, partial curve, poor fit]	6.51 µM [falling, partial curve, poor fit]
C=CCN1C(=O)C(O)(CC(=O)c2ccc(OC)cc2OC)c2cc(Br)ccc21 (configuration not stated)	3.9		6.51 µM [rising, single point]
CCOc1ccccc1NC=C1C(=O)OC(C)(C)OC1=O	-17.9	29.1 µM [falling, partial curve, poor fit]	
COc1ccc(NC(=O)c2cccc(-n3c(C)ccc3C)c2)c(OC)c1		0.103 µM [rising, full curve, poor fit]	0.116 µM [falling, full curve, poor fit]
COc1ccc(-c2nsc(SCC(=O)NCc3ccc4c(c3)OCO4)n2)cc1	-0.453	4.11 µM [rising, full curve, poor fit]	
NS(=O)(=O)c1ccc(CCNC(=O)COC(=O)Cc2c(F)cccc2Cl)cc1	0.156	16.4 µM [falling, single point]	
O=C1CC(C(=O)Nc2ccccc2)C2(CCCC2)O1 (configuration not stated)	-74.2		29.1 µM [falling, single point]

SMILES	cell number change [%]	AC50 [1]	AC50 [2]
COc1ccc(S(=O)(=O)Nc2ccc(Cc3ccncc3)cc2)cc1C	-36.1		11.6 µM [falling, partial curve, poor fit]
NS(=O)(=O)c1ccc(NC(=O)c2ccc3c(c2)CCCC3)cc1	43.2		18.4 µM [rising, partial curve]
COc1cccc(CNC(=O)c2ccccc2SCC(=O)N2CCCC2)c1	5.07		
Cc1ccc(NC(=O)NCCCN2CCCC2=O)cc1		0.517 µM [rising, single point]	
O=S(=O)(c1ccc2ccccc2c1)N1CCCOC1	1.95	0.411 µM [falling, full curve, poor fit]	
Cc1cc(Cl)ccc1OCC(=O)OCC(=O)NC1CCS(=O)(=O)C1 (configuration not stated)	6.14	0.00461 µM [rising, full curve, poor fit]	
O=[N+]([O-])c1ccc2nc(NS(=O)(=O)c3ccccc3[N+](=O)[O-])sc2c1	7.62		0.00517 µM [rising, full curve, poor fit]
COc1cc(SC)ccc1C(=O)N1CCCc2ccccc21	-19.6	23.1 µM [falling, single point]	
COc1cc(-c2nc3ccc4ccccc4c3c3c2CCC3)ccc1O		0.0731 µM [rising, full curve, poor fit]	0.13 µM [rising, full curve, poor fit]
CC1=CC(C)(C)Nc2ccc(Cc3ccc4c(c3)C(C)=CC(C)(C)N4)cc21	-53.8	18.4 µM [falling, partial curve]	23.1 µM [falling, single point]
CCN(CCO)Cc1csc2ccc(Br)cc12	-22	7.31 µM [falling, partial curve]	1.03 µM [falling, full curve]
NC(=O)c1nsc(C(=O)N(c2ccccc2)C(C(=O)NCC2CCCO2)c2ccc3ncccc3c2)c1N (configuration not stated)	15.9	6.51 µM [rising, single point]	
O=C(CSc1nc2c(sc3ccccc32)c(=O)n1CCCN1CCCC1)NCc1ccccc1	30.5		3.66 µM [rising, full curve, poor fit]
CCOc1ccc(N2C(=O)CC(SCCN)C2=O)cc1 (configuration not stated)	-44.7		23.1 µM [falling, single point]
Cc1cc(C)c(S(=O)(=O)N2CCN(C(=O)CCOc3ccccc3C)CC2)c(C)c1	16.2	0.0651 µM [rising, full curve, poor fit]	
O=C(CN1C(=O)C2CC=CCC2C1=O)Nc1nc(-c2ccc(F)cc2)cs1 (configuration not stated)	19.4	0.517 µM [rising, single point]	
CC(C)(C)c1ccccc1NC(=O)C1=COCCO1	-30.2	29.1 µM [falling, single point]	29.1 µM [falling, single point]
O=C(Nc1nc(-c2ccncc2)cs1)C1c2ccccc2Oc2ccccc21	7.15	2.31 µM [rising, partial curve]	2.31 µM [rising, partial curve]
CCC(=O)N1CCc2cc(S(=O)(=O)CCC(=O)N3CCN(c4ccc(Cl)cc4)CC3)ccc21	-58.2		20.6 µM [falling, single point]

In another format: results already given
CCN(CCO)Cc1csc2ccc(Br)cc12
  cell number change [%]: -22
  AC50 [1]: 7.31 µM [falling, partial curve]
  AC50 [2]: 1.03 µM [falling, full curve]
NC(=O)c1nsc(C(=O)N(c2ccccc2)C(C(=O)NCC2CCCO2)c2ccc3ncccc3c2)c1N (configuration not stated)
  cell number change [%]: 15.9
  AC50 [1]: 6.51 µM [rising, single point]
O=C(CSc1nc2c(sc3ccccc32)c(=O)n1CCCN1CCCC1)NCc1ccccc1
  cell number change [%]: 30.5
  AC50 [2]: 3.66 µM [rising, full curve, poor fit]
CCOc1ccc(N2C(=O)CC(SCCN)C2=O)cc1 (configuration not stated)
  cell number change [%]: -44.7
  AC50 [2]: 23.1 µM [falling, single point]

— PubChem BioAssay AID2685 (National Center for Advancing Translational Sciences (NCATS), 2010)
